Values of other authors in patent US20140060390A1, “COMPOSITION COMPRISING PORTLAND CEMENT FOR USE IN VERTEBROPLASTY” (SPINEART SA, priority 2011, published 2014).
Some results were stated once for a whole list of compounds, not compound by compound.

Settings: literature

O=C(O)CC(O)(CC(=O)O)C(=O)O [citric acid]
dissociation constant Kd: lower than 1 mM
